Measured values reported in PubChem BioAssay AID1347076 (National Center for Advancing Translational Sciences (NCATS), 2019).
About 13,000 (3.2%) of roughly 400,000 compounds were called active. Inconclusive results, whose numbers are uncertain, are shown with a selection of clear calls. Calls come from the whole dose curve; as a rule, active = well fitted cell-killing curve with a large enough effect; inconclusive = small, poorly fitted or top-dose-only effect, or effect the other way; inactive = flat fitted curve, though single readings scatter. Potencies of inconclusive entries are doubtful fits and often do not repeat.

test: qHTS assay for MDR1-selective chemotherapeutics: Primary screen using the drug-selected MDR subline cells KB-V1; settings: KB-V1 MDR cells viability, CellTiter-Glo, 72 h; activity change, negative = cytotoxicity: at 46.1 µM (top of the series); note: nearly all actives have a fitted effect of over 60% in size
Excerpt: A prime difficulty in effectively treating cancer is the development of cellular resistance to multiple structurally unrelated anticancer drugs, a phenomenon known as multidrug resistance (MDR). […] Numerous strategies to overcome P-gp-mediated MDR have been explored, including the design of drugs that evade recognition and efflux, and development of inhibitors to block efflux and restore drug accumulation. […] An alternative approach is to exploit resistance by identifying drugs that target MDR cells over the non-resistant parental cells from which they were selected. […] The development of MDR1-selective agents represents a new strategy for resolving multidrug resistance, as it remains a long-standing clinical challenge for cancer chemotherapy.
Our goal is to identify compounds that selectively kill P-gp-expressing MDR cells. We will identify MDR1-selective compounds by comparing toxicity of compounds in the screening library against parental, drug-naive (KB-3-1) adenocarcinoma cells as well as their drug-selected MDR sub-line (KB-V1). The differential toxicity of compounds against these two cell lines will be used to identify MDR1-selective compounds, whose cytotoxicity is potentiated, rather than diminished, by P-gp expression. This assay will be utilized to conduct a quantitative high-throughput screen (qHTS) in collaboration with the NIH Chemical Genomics Center to identify selective agents, and probe hits arising from the screen will be validated using secondary assays and characterized through a well-established follow-up research program. This screen was run against the entire NCGC library collection of about 400,000 compounds.
NIH Molecular Libraries Probe Production Network [MLPCN]
NIH Chemical Genomics Center [NCGC]
PI: Michael Gottesman, National Cancer Institute, NIH
Briefly, 5 microL of media containing either KB-V1 cells (columns 1-2, 4-48) are dispensed into Greiner white, treated solid-bottom 1536-well assay plates (media-only control is added to column 3). Compounds are then transferred via Kalypsys pin tool equipped with 1536-pin array (10 nL slotted pins, V&P Scientific, San Diego, CA). Following addition of compound, the plates are incubated at 37 degrees C for 72 hours. CellTiter-Glo (2.5 µL/well) is then added, and the plates are read in a ViewLux reader (Perkin-Elmer, clear luminescence filter, 1 second exposure, 1x binning) following a 10 minute incubation. All cells are dispensed in DMEM phenol-red free media containing 10% FBS.
Library plates were screened starting from the lowest and proceeding to the highest concentration. Vehicle-only plates, with DMSO being pin-transferred to columns 5-48, will be inserted uniformly at the beginning and the end of each library in order to monitor and record any shifts in the background, which can be affected by reagent dispensers or loss in enzyme activity over time. Screening data will be corrected, normalized, and concentration-effect relationships will be derived by using publicly-available NCGC, NCATS curve fitting algorithms (http://ncgc.nih.gov/pub/openhts).
% is set by controls: 0 for no effect and ±100 for the full control effect; potency is the fitted concentration of half-maximal effect.

SMILES | Potency | activity change, negative = cytotoxicity
COc1ccc(CNc2cc(C)ccc2C)c(OC)c1OC | active: 14.6 µM | 
C=CCn1c(=O)/c(=C/c2cc(OC)c(OC)c(OC)c2)s/c1=C(/C#N)c1nc2ccccc2n1C | inconclusive: 0.651 µM [cytotoxic, partial curve, poor fit] | 
c1ccc(CSc2ncnc3ccccc23)cc1 | inconclusive: 2.91 µM [rising, partial curve, poor fit] | 
S=C(NC1CCCCC1)NN1CCCCCC1 |  | inconclusive: 31%
O=C(Nc1ccc(S(=O)(=O)NCc2ccccc2)cc1)c1ccccc1[N+](=O)[O-] | inconclusive: 16.4 µM [cytotoxic, single point] | 
Cc1ccc(OCc2nc(-c3ccc(C(=O)N4CCN(c5cccc(C(F)(F)F)c5)CC4)cc3)oc2C)cc1 |  | inactive: 4.37%
c1ccc2c(c1)nc(N1CCOCC1)c1c3ccccc3[nH]c21 | active: 20.6 µM | 
CC[C@H](C)[C@H](NC(N)=O)C(=O)Nc1ccccc1F |  | inactive: -4.21%
C=CCN1C(c2ccccc2)=CS/C1=C(\C#N)c1nnc2n1CCCCC2 | inconclusive: 8.2 µM [cytotoxic, partial curve, poor fit] | 
CCOc1ccc2c(c1)sc1nc(=O)n(-c3ccc(Cl)c(Cl)c3)c(=O)n12 |  | inactive: 26.8%
COc1cccc(NC(=S)N2CCN(c3ccccn3)CC2)c1 |  | inactive: 0%
COc1ccc(CC(=O)NC(C)c2nnc(SCC(=O)Nc3ccccc3)n2C)cc1 (stereo not given) | inconclusive: 5.17 µM [rising, full curve, poor fit] | 
CCOC(=O)c1c(C)nc2ccccc2c1-c1ccccc1 | inconclusive: 18.4 µM [cytotoxic, single point] | 
CCOc1ccc(CN(C)CC(=O)c2c(N)n(Cc3ccccc3)c(=O)n(CC)c2=O)cc1OC | inconclusive: 0.0116 µM [cytotoxic, full curve, poor fit] | 
CCOC(=O)Nc1ccc2c(c1)N(C(=O)CCN(CC)CC)c1ccccc1CC2 |  | inactive: -2.47%
O=C(Nc1ccccc1)N(Cc1c[nH]c2ccccc12)C1CCCCCC1 |  | inactive: 9.13%
COc1cccc(CNC(=O)c2ccc(CNS(=O)(=O)c3ccc(C)cc3)cc2)c1 | inconclusive: 7.31 µM [cytotoxic, partial curve, poor fit] | 
Cc1ccc(OCCn2c(C)nc3ccccc32)cc1 | inconclusive: 32.6 µM [cytotoxic, single point] | 
C/C(=C\C(=O)O)C(=O)Nc1nccs1 | inconclusive: 23.1 µM [rising, single point] | 
COCCCNC(=O)c1cc(Sc2ccc(F)cc2)nc2ccccc12 | inconclusive: 10.3 µM [cytotoxic, partial curve] | 
CCN(CC)S(=O)(=O)c1cc(NC(=O)CN2C(=O)NC(C)(c3ccccc3)C2=O)ccc1C (stereo not given) |  | inactive: 4.17%
CC(=O)Nc1ccc(/C=C/c2nc3ccccc3[nH]c2=O)cc1 |  | inactive: 14.6%
CCN1C(=O)[C@H]2[C@@H](c3ccc(Cl)cc3)N3C(=O)CN(CCOC)C(=O)[C@@]3(C)[C@H]2C1=O |  | inactive: 4.35%
O=C(COc1ccccc1)NCc1ccco1 | inconclusive: 4.11 µM [rising, partial curve, poor fit] | 

SMILES | Potency | activity change, negative = cytotoxicity
COc1ccc(C2C(=O)N(C3CCCCC3)CC(=O)N2CCc2ccccc2)cc1OC (stereo not given) |  | inactive: -18%
Cc1ccc(-n2nc3ccc(N)cc3n2)cc1 |  | inactive: 11.4%
COc1ccc(S(=O)(=O)N2CCN(c3nc(-c4cccnc4)nc4ccccc34)CC2)cc1 | inconclusive: 29.1 µM [cytotoxic, single point] | 
N#C/C(=C\c1ccc(Sc2ccc(Cl)cc2)o1)c1nc2ccccc2[nH]1 | active: 14.6 µM | 
Cc1ccc(S(=O)(=O)NCCC(c2ccccc2)c2ccco2)cc1 (stereo not given) | active: 23.1 µM | 
COc1ccc(S(=O)(=O)NCCc2sc(-c3cccnc3)nc2C)c(F)c1 | inconclusive: 14.6 µM [cytotoxic, single point] | 
CCN(CC)CCNC(=O)C(=O)NCC(c1cccnc1)N1CCN(c2ccc(F)cc2)CC1 (stereo not given) |  | inactive: 0%
O=C(N/N=C\c1ccc([N+](=O)[O-])s1)C1COc2ccccc2O1 (stereo not given) |  | inactive: -30.9%
COCCNC(=O)c1sc(=O)n(Cc2ccc(SC)cc2)c1C | inconclusive: 20.6 µM [cytotoxic, single point] | 
O=C(CN1C(=O)/C(=C/c2ccccc2)SC1=S)NC1C=CS(=O)(=O)C1 (stereo not given) | inconclusive: 29.1 µM [rising, single point] | 
Cc1ccc(CNC(=O)Cn2c(=O)ccc3cc(S(=O)(=O)N4CCC(C)CC4)ccc32)cc1 | inconclusive: 29.1 µM [cytotoxic, single point] | 
Cc1onc(-c2ccccc2)c1C(=O)Nc1nc(-c2cc(F)ccc2F)cs1 |  | inactive: 0.367%
CN1C(CC(=O)Nc2ccc(Br)cc2)c2ccccc2CC1(C)C (stereo not given) | inconclusive: 20.6 µM [cytotoxic, single point] | 
COc1ccc2cc3cc(C(=O)Nc4cc(C)c(Cl)cc4OC)oc3nc2c1 | inconclusive: 4.11 µM [cytotoxic, full curve] | 
CC1CCCC(NC(=O)CN2CCN(S(=O)(=O)c3ccc(Br)s3)CC2)C1C (stereo not given) | inconclusive: 10.3 µM [cytotoxic, partial curve] | 
COc1cc(/C=N/NC(=O)c2cccnc2)ccc1OC(=O)c1cc(OC)c(OC)c(OC)c1 | inconclusive: 0.326 µM [rising, full curve] | 
COc1ccc2nc(N3C(=O)CC(Cc4cc(C)cc(C)c4)C3=O)sc2c1 (stereo not given) | inconclusive: 8.2 µM [cytotoxic, partial curve] | 
CCCn1c(=O)c(C(=O)NCCc2ccc(OC)cc2)c(O)c2ccccc21 |  | inactive: 0%
COC(=O)c1cc(C(=O)OCC(=O)NC2CCCC2)cc([N+](=O)[O-])c1 |  | inactive: 2.71%
CN(c1ccccc1)S(=O)(=O)c1cccc(NC(=O)CCNC(=O)c2ccc(Cl)cc2)c1 | inconclusive: 29.1 µM [cytotoxic, single point] | 
Cc1cc(N/N=C/c2cccc(Br)c2)nc2ccccc12 | active: 20.6 µM | 
CN(Cc1ccccc1)S(=O)(=O)c1ccc(Cl)c(C(=O)NCc2ccncc2)c1 | inconclusive: 18.4 µM [cytotoxic, single point] | 
NC(Cc1ccc(F)cc1)c1csc(NC(=O)NC(c2ccccc2)c2ccccc2)n1 (stereo not given) | inconclusive: 20.6 µM [cytotoxic, single point] | 
Cc1ccc(S(=O)(=O)N2CCN(C(=O)NCc3ccc(C(=O)O)cc3)CC2)cc1 | inconclusive: 29.1 µM [rising, partial curve, poor fit] | 

Reprinted at random: 3 records from the list.
SMILES | Potency | activity change, negative = cytotoxicity
Cc1ccc(S(=O)(=O)N2CCN(C(=O)NCc3ccc(C(=O)O)cc3)CC2)cc1 | inconclusive: 29.1 µM [rising, partial curve, poor fit] | 
Cc1onc(-c2ccccc2)c1C(=O)Nc1nc(-c2cc(F)ccc2F)cs1 |  | inactive: 0.367%
COc1ccc(S(=O)(=O)N2CCN(c3nc(-c4cccnc4)nc4ccccc34)CC2)cc1 | inconclusive: 29.1 µM [cytotoxic, single point] | 

Single records, from the list above.
`CC1CCCC(NC(=O)CN2CCN(S(=O)(=O)c3ccc(Br)s3)CC2)C1C` (stereo not given) reads Potency: inconclusive: 10.3 µM [cytotoxic, partial curve]
`CCN1C(=O)[C@H]2[C@@H](c3ccc(Cl)cc3)N3C(=O)CN(CCOC)C(=O)[C@@]3(C)[C@H]2C1=O` reads activity change, negative = cytotoxicity: inactive: 4.35%

Continued.

SMILES | Potency | activity change, negative = cytotoxicity
Cn1cc(CNCc2ccc(-n3cccn3)cc2)c(-c2ccccc2F)n1 | inconclusive: 32.6 µM [cytotoxic, single point] | 
O=C(CSCc1ccc(Br)cc1)Nc1ccc(S(=O)(=O)N2CCCCCC2)cc1 | inconclusive: 18.4 µM [cytotoxic, single point] | 
CC(=O)c1cccc(NS(=O)(=O)c2cc(-c3onc(C)c3C)ccc2C)c1 | inconclusive: 16.4 µM [cytotoxic, single point] | 
OCCN(CCO)c1ccc(/C=C/c2ccnc3ccccc23)cc1 | active: 13 µM | 
O=C(Nc1ncn[nH]1)c1cccc(S(=O)(=O)N2CCOCC2)c1 | inconclusive: 29.1 µM [rising, single point] | 
Cc1ccc(CN(Cc2cc3cc4c(cc3[nH]c2=O)OCCO4)Cc2nnnn2Cc2ccco2)cc1 | active: 14.6 µM | 
CN(C(=O)/C=C/c1ccc2c(c1)OCO2)c1ccccc1 | inconclusive: 14.6 µM [cytotoxic, partial curve] | 
COc1ccc(NS(=O)(=O)c2ccc(-c3coc(C)n3)cc2)cc1OC |  | inactive: -11.8%
CCCCCCn1c(=O)c(-c2ccccc2)c(O)c2ccccc21 |  | inactive: 4.42%
Cc1ccc(S(=O)(=O)N2CCN(C3CCN(Cc4ccccc4)CC3)CC2)cc1 | inconclusive: 1.3 µM [cytotoxic, full curve] | 
CCN(CC)C(=O)c1ccccc1NC(=O)c1cccc(S(=O)(=O)N(CC)CC)c1 | inconclusive: 9.2 µM [cytotoxic, partial curve] | 
CC1(Cc2ccc(Cl)cc2)C(=O)Nc2ccc(S(=O)(=O)NC3CCCCC3)cc21 (stereo not given) | inconclusive: 29.1 µM [cytotoxic, single point] | 
CCc1nc2ccc(C(=O)Nc3ccc4c(c3)OCO4)cc2nc1CC | inconclusive: 20.6 µM [cytotoxic, partial curve, poor fit] | 
Fc1ccc(COc2ccc3ccccc3c2CNc2nn[nH]n2)cc1 |  | inactive: -30.2%
CCOc1ccccc1NC(=O)CSc1nc2c(sc3ccccc32)c(=O)n1CCCC(=O)NC1CCCC1 | inconclusive: 29.1 µM [rising, single point] | 
COc1cc(NC(=O)C2CCN(S(=O)(=O)c3ccc4c(c3)CCCC(=O)N4)CC2)cc(OC)c1 |  | inactive: -7.87%
CCOC(=O)C1=C(c2ccccc2)N=c2s/c(=C\c3ccc(O)cc3)c(=O)n2C1c1cccs1 (stereo not given) | inconclusive: 29.1 µM [cytotoxic, single point] | 
Cc1nc2ccccc2n1CC(=O)c1ccc(O)c(O)c1 | inconclusive: 20.6 µM [rising, single point] | 
CC(C)(C)c1nnc(NC(=O)C2c3ccccc3Oc3ccccc32)s1 | inconclusive: 4.61 µM [cytotoxic, partial curve] | 
CCOC(=O)c1ccc(NC(=O)c2cccc(S(=O)(=O)N3CCOCC3)c2)cc1 | active: 23.1 µM | 
COc1ccccc1CNS(=O)(=O)c1cc(C(=O)NCc2ccccn2)c(Cl)cc1Cl | inconclusive: 10.3 µM [cytotoxic, partial curve, poor fit] | 
CCO[C@@H]1OC(C(N)=O)=C[C@H](c2cn(C(C)=O)c3ccccc23)[C@H]1CCCO |  | inconclusive: 8.65%
